This note sets out measurements from doi:10.1101/2020.11.05.369280 (bioRxiv, 2020).

Amino acid sequences for entries named in this document (tags omitted). Residues count along the entry.
UniProt P02769, residues 25-607: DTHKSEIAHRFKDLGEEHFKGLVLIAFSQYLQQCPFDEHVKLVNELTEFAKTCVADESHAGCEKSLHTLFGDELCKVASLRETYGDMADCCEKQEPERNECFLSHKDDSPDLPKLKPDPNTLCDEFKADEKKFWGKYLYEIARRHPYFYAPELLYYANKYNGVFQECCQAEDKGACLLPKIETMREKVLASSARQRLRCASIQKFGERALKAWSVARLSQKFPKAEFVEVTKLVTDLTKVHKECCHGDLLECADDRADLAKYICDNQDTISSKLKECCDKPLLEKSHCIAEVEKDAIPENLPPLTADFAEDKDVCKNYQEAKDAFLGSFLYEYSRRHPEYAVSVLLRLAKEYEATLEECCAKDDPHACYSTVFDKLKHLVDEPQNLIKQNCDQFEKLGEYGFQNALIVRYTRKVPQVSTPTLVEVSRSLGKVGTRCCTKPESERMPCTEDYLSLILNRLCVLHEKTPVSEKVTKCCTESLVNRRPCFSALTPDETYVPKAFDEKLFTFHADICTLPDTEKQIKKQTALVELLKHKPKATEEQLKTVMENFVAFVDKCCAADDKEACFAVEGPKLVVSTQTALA
UniProt P69783, residues 2-169: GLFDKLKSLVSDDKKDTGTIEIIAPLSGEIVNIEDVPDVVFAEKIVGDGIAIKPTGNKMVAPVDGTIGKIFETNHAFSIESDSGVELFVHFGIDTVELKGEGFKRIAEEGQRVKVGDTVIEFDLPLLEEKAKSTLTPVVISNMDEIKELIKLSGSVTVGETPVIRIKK

Common to all, as to assay: cross-linking
Test [1] deals with bovine serum albumin (bovine) (UniProt P02769).
Test [2] addresses EIIA^Glc (UniProt P69783).
Test [3] deals with EIIA^Glc (UniProt P69783). The source holds these as a separate data set.
Test [4] concerns the target EIIA^Glc (UniProt P69783). This is another data set of the same source.

Read-outs that look alike come from different tables or passages of the source. No constants are given. Whether binding was seen depends on the method and setting. Some entries that bind do so weakly or less than the wild type.

On to “bovine serum albumin (from UniProt P02769 25-607)”, for which, in test [1], the binding result was “no binding (condition: at pH 3.0)”.

B1: EIIB^Glc (domain or fragment)
chain: EDATEDAKATGTSEMAPALVAAFGGKENITNLDACITRLRVSVADVSKVDQAGLKKLGAAGVVVAGSGVQAIFGTKSDNLKTEMDEYIRN
Turning to B1, the binding entry in test [2], in test [3] and in test [4] was “binds weakly” in each case.
